Experiment [1] addresses T1, FLAG-full length RITA (RBP-J interacting and tubulin-associated protein) (UniProt Q96K30).
T1 sequence: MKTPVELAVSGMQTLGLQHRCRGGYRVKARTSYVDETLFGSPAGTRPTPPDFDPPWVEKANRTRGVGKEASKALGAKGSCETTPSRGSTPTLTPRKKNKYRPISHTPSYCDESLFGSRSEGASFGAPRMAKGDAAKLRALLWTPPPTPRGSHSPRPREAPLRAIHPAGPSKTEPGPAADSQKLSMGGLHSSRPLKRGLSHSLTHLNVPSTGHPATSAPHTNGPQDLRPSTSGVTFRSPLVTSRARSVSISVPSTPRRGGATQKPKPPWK
Briefly: co-IP; HEK293T transfected with FLAG vector or FLAG-RITA for 48 h, treated with DMSO, 10 µM nocodazole or 10 µM paclitaxel for 30 min; lysates precipitated with anti-FLAG agarose beads at 4°C overnight; Western blot. (Immunoblotting shows a protein as a band on a membrane.)

The target in experiment [2] is tubulin (human (endogenous in HEK293T)). Briefly: co-IP; HEK293T transfected with FLAG vector or FLAG-RITA for 48 h; lysates precipitated with mouse monoclonal anti-α-tubulin antibody and Protein G Sepharose at 4°C overnight; Western blot with PRC1 and FLAG antibodies; also after DMSO, 10 µM nocodazole or 10 µM paclitaxel for 30 min (lysis in RIPA buffer with the same agent).

No constants are given. Whether binding was seen depends on the method and setting. In cells and extracts the contact can be indirect. A result given as binding can be weak or reduced; the word gives no strength. Tags and fused reporters may be left off the sequences shown.

On to tubulin (human (endogenous in HEK293T)), for which the binding result in experiment [1] is on record as “binds”.

B1: FLAG-full length RITA (RBP-J interacting and tubulin-associated protein) (protein, UniProt Q96K30 1-269)
chain: T1 sequence
On to B1, for which the binding result in experiment [2] is “binds”.

Values taken from PMC11747798.
